The test system of this test is RAW 264.7. The experiment in a line: HMGB1-induced TNF-alpha production relative to HMGB1-stimulated control; higher = more TNF-alpha secretion (less inhibition). To be noted: stimulus: HMGB1 5 ug/ml, 18 h.
Where [1] appears, read: compound concentration: 1 ug/ml.

Where a name gives a salt, the structure may show the parent alone. ± gives the standard deviation of the averaged measurements. The list shows a part of the results. Most values come without repeats; read them as rough.

Regarding `COc1cc2c(cc1OC)-c1c/c(=N\c3c(C)cc(C)cc3C)n(C)c(=O)n1CC2` [Trequinsin hydrochloride], for the setting “compound concentration: 3 uM”, the “HMGB1-induced TNF-alpha production” value came to 99.2%. Still for that read-out and setting: next, `COc1cc2c(cc1OC)-c1c/c(=N\c3c(C)cc(C)cc3C)n(C)c(=O)n1CC2` [Trequinsin HCl]: 79.5%; `Cc1cccc(Nc2ccncc2S(=O)(=O)NC(=O)NC(C)C)c1` [Torsemide]: 101%; `Cc1cccc(Nc2ccncc2S(=O)(=O)NC(=O)NC(C)C)c1`: 94.3%. Turning to `O=C(O)CCCC[C@@H]1CCSS1`, the “HMGB1-induced TNF-alpha production” value (compound concentration: 3 uM) was found to be 94.3%. As to `COC(=O)C1OC(Oc2cc(O)c3c(c2)O[C@H](c2ccccc2O)CC3=O)C(O)C(O)C1O` (stereo not given in full), the “HMGB1-induced TNF-alpha production” value under setting [1] was determined as 71.9%. Consider `NC(=O)N1c2ccccc2CC(=O)c2ccccc21` [Oxcarbazepine], for which the “HMGB1-induced TNF-alpha production” value (compound concentration: 3 uM) came to 77.7 ± 13%. Still for that read-out and setting: next, `NC(=O)N1c2ccccc2CC(=O)c2ccccc21` [Trileptal]: 104%; `NC(=O)N1c2ccccc2CC(=O)c2ccccc21`: 92.4%; `NC1=NCC2c3ccccc3Cc3ccccc3N12` (stereo not given) [Epinastine hydrochloride]: 74.5%. As to `O=C(C=Cc1ccc(O)cc1)c1ccccc1O` [2',4-Dihydroxychalcone], the “HMGB1-induced TNF-alpha production” value under setting [1] was found to be 80.5%. Take `CC(C)Cn1cnc2c(N)nc3ccccc3c21` [Imiquimod]: under “compound concentration: 3 uM”, the “HMGB1-induced TNF-alpha production” value came to 175 ± 97%. Same read-out and setting: next, `CC(=O)OCC(=O)[C@@]1(O)[C@H](OC(C)=O)C[C@H]2[C@@H]3CCC4=CC(=O)C=C[C@]4(C)[C@@]3(F)[C@@H](O)C[C@@]21C`: 39.8%; `O=C1OC(=O)[C@H]2[C@@H]1[C@@H]1CC[C@H]2O1`: 129%. On to `O=C1OC(=O)[C@H]2[C@@H]1[C@@H]1CC[C@H]2O1` [Norcantharidin], for which the “HMGB1-induced TNF-alpha production” value runs as follows: under setting [1], 144%; (compound concentration: 3 uM) 151%. As to `CN(C)CC[C@@H](c1ccc(Br)cc1)c1ccccn1`, the “HMGB1-induced TNF-alpha production” value (compound concentration: 3 uM) was found to be 110%. Same read-out and setting: the same measure for `CC(C)NC(=N)NC(=N)Nc1ccc(Cl)cc1` [Proguanil hydrochloride]: 77.1%; for `CC(C)NC(=N)NC(=N)Nc1ccc(Cl)cc1`: 80.5%; for `COc1ccc2c3c1O[C@H]1C[C@@H](O)C=C[C@@]31CCN(C)C2` [Galanthamine hydrobromide]: 116%. `COc1ccc2c3c1O[C@H]1C[C@@H](O)C=C[C@@]31CCN(C)C2` [Galanthamine]: the “HMGB1-induced TNF-alpha production” value (compound concentration: 3 uM) came out at 95.7 ± 11%. As for `COc1ccc2c3c1O[C@H]1C[C@@H](O)C=C[C@@]31CCN(C)C2` [(-)Galanthamine], the “HMGB1-induced TNF-alpha production” value under setting [1] stood at 69.9%. `COc1ccc2c3c1O[C@H]1C[C@@H](O)C=C[C@@]31CCN(C)C2`: the “HMGB1-induced TNF-alpha production” value (compound concentration: 3 uM) stood at 80.1%. Turning to `CCCCC1(C2CCCC2)Cc2cc(OCC(=O)O)c(Cl)c(Cl)c2C1=O` (stereo in doubt) [R(+)-Butylindazone], for the setting “compound concentration: 3 uM”, the “HMGB1-induced TNF-alpha production” value is 74.9%. For `C[S+](CC[C@H](N)C(=O)I)C[C@H]1O[C@@H](n2cnc3c(N)ncnc32)[C@H](O)[C@@H]1O` (stereo partly drawn) [S-(5'-Adenosyl)-L-methionine iodide], under setting [1], the “HMGB1-induced TNF-alpha production” value stood at 68.9%. For the compound `CCCC(=O)O[C@]1(C(=O)CO)CC[C@H]2[C@@H]3CCC4=CC(=O)CC[C@]4(C)[C@H]3[C@@H](O)C[C@@]21C`, the “HMGB1-induced TNF-alpha production” value (compound concentration: 3 uM) was determined as 46%. As to `CCCC(=O)O[C@]1(C(=O)CO)CC[C@H]2[C@@H]3CCC4=CC(=O)CC[C@]4(C)[C@H]3[C@@H](O)C[C@@]21C` [Hydrocortisone 17-butyrate], under setting [1], the “HMGB1-induced TNF-alpha production” value is 33.1%. In the case of `CC1(C)S[C@@H]2[C@H](NC(=O)COc3ccccc3)C(=O)N2[C@H]1C(=O)O`, the “HMGB1-induced TNF-alpha production” value (compound concentration: 3 uM) came to 114%. As to `Cc1nnc(SCC2=C(C(=O)O)N3C(=O)[C@@H](NC(=O)Cn4cnnn4)[C@H]3SC2)s1`, the “HMGB1-induced TNF-alpha production” value (compound concentration: 3 uM) turned out to be 81.4%. On the same count and under the same terms, the same measure for `Cc1nnc(SCC2=C(C(=O)O)N3C(=O)[C@@H](NC(=O)Cn4cnnn4)[C@H]3SC2)s1` [Cefazolin sodium]: 76.2%; for `Cc1nnc(SCC2=C(C(=O)O)N3C(=O)[C@@H](NC(=O)Cn4cnnn4)[C@H]3SC2)s1` [Cefazolin sodium salt]: 99.4%; for `Nc1nc2c(ncn2[C@@H]2O[C@H](CO)[C@@H](O)[C@@H]2O)c(=O)[nH]1` [Ara-G hydrate]: 103%.

`O=c1[nH]c(=O)n([C@H]2C[C@H](O)[C@@H](CO)O2)cc1C(F)(F)F` [Trifluridine]: the “HMGB1-induced TNF-alpha production” value (compound concentration: 3 uM) amounted to 136%. `O=c1[nH]c(=O)n([C@H]2C[C@H](O)[C@@H](CO)O2)cc1C(F)(F)F` [Trifluorothymidine]: the “HMGB1-induced TNF-alpha production” value under setting [1] was 62.8%. In the case of `O=c1[nH]c(=O)n([C@H]2C[C@H](O)[C@@H](CO)O2)cc1C(F)(F)F`, the “HMGB1-induced TNF-alpha production” value (compound concentration: 3 uM) is 73.1%. Regarding `CCCCCCCCNC(C)C(O)c1ccc(SC(C)C)cc1` (stereo not given) [Suloctidil], the “HMGB1-induced TNF-alpha production” value (compound concentration: 3 uM) is 56.1%. On the same count and under the same terms, next, `CCCCCCCCNC(C)C(O)c1ccc(SC(C)C)cc1` (stereo not given): 90.3%.

Take `Cc1cc2nc3c(=O)[nH]c(=O)nc-3n(C[C@H](O)[C@H](O)[C@H](O)COP(=O)(O)OP(=O)(O)OC[C@H]3O[C@@H](n4cnc5c(N)ncnc54)[C@H](O)[C@@H]3O)c2cc1C` [Flavin adenine dinucleotide disodium salt]: the “HMGB1-induced TNF-alpha production” value under setting [1] was 71%. On to `C[C@H]1O[C@@H](O[C@H]2[C@@H](O)C[C@H](O[C@H]3[C@@H](O)C[C@H](O[C@H]4CC[C@@]5(C)[C@H](CC[C@@H]6[C@@H]5CC[C@]5(C)[C@@H](C7=CC(=O)OC7)CC[C@]65O)C4)O[C@@H]3C)O[C@@H]2C)C[C@H](O)[C@@H]1O` [Digitoxin], for which the “HMGB1-induced TNF-alpha production” value under setting [1] is 72.1%.

In the case of `C[C@H]1O[C@@H](O[C@H]2[C@@H](O)C[C@H](O[C@H]3[C@@H](O)C[C@H](O[C@H]4CC[C@@]5(C)[C@H](CC[C@@H]6[C@@H]5CC[C@]5(C)[C@@H](C7=CC(=O)OC7)CC[C@]65O)C4)O[C@@H]3C)O[C@@H]2C)C[C@H](O)[C@@H]1O`, the “HMGB1-induced TNF-alpha production” value (compound concentration: 3 uM) stood at 82.7%.

The values above are taken from the supplement of paper PMC3682954.
